Source: patent publication US6183721A, “Chelated peptides, complexes thereof, pharmaceutical compositions containing them and their use as radiopharmaceuticals” (Novartis AG, priority 1997, dated 2001)
Part of at least one peptide drawing is inferred or uncertain, most often the ends.

System: somatostatin receptors expressed in rat cortex or AR42J pancreatic tumor cells
Experiment: somatostatin receptor binding assay
Conditions: [125I][Tyr3]-octreotide as specific ligand

Question: For C[C@@H](O)[C@@H]1NC(=O)[C@H](CCCCN)NC(=O)[C@@H](Cc2c[nH]c3ccccc23)NC(=O)[C@H](Cc2ccc(O)cc2)NC(=O)[C@@H](NC(=O)[C@@H](Cc2ccccc2)NC(=O)CN2CCN(CC(=O)O)CCN(CC(=O)O)CCN(CC(=O)O)CC2)CSSC[C@@H](C(=O)N[C@H](CO)[C@@H](C)O)NC1=O [Example 1], which pKi is on record?
Answer: 8.9±0.1
